Measured values reported in PMC4614863, “New Insights into the RNA-Binding and E3 Ubiquitin Ligase Activities of Roquins”.
These are yes or no findings as the source states them, for the method shown. For some assays here: Sequences can lack the tags named with a protein. One block for each binder: values may come before it.

Experiments:
[1] = molecular target: human RC3H2 (a.a. 1–442) (human) (UniProt Q9HBD1); experiment: SAXS; protein alone in solution, concentration series extrapolated to infinite dilution; room temperature; 20 mM Tris-HCl, pH 8.0, 150 mM NaCl, 1 mM TCEP; both purified
[2] = molecular target: RC3H1 ROQ domain (a.a. 178–328), proteolytic product of RC3H1 (a.a. 1–445) (human) (UniProt Q5TC82); experiment: crystal structure; RC3H1 (a.a. 1–445) with elastase 1:1000 (w/w) in the drop; two copies of a.a. 178–328 in the asymmetric unit; 25% PEG-8000, 0.2 M NaCl, 0.1 M HEPES, pH 7.5, 20 °C; both purified
[3] = molecular target: human RC3H1 (a.a. 1–445) (human) (UniProt Q5TC82); experiment: SAXS; protein alone in solution, concentration series extrapolated to infinite dilution; room temperature; 20 mM Tris-HCl, pH 8.0, 150 mM NaCl, 1 mM TCEP; both purified
[4] = molecular target: RNA-binding region of human RC3H2 (a.a. 87–404), as used in analytical SEC (human) (UniProt Q9HBD1); experiment: SEC; analytical Superdex 200 10/300, protein without RNA; 20 mM Tris-HCl, pH 8.0, 150 mM NaCl, 1 mM TCEP; column calibrated with gel filtration standard; both purified
[5] = molecular target: RNA-binding region of human RC3H2 (a.a. 87–404), N-terminal His6-tag removed (human) (UniProt Q9HBD1); experiment: crystal structure; RC3H2 (a.a. 87–404) with 15-nt Ier3 RNA (molar ratio 1:1.5); two protein molecules in the asymmetric unit; 17% PEG-10K, 0.1 M Bis-Tris, pH 6.5, 20 °C; both purified

B1: human RC3H2 (a.a. 1–442) (domain or fragment, UniProt Q9HBD1 1-442)
chain: MPVQAAQWTEFLSCPICYNEFDENVHKPISLGCSHTVCKTCLNKLHRKACPFDQTAINTDIDVLPVNFALLQLVGAQVPDHQSIKLSNLGENKHYEVAKKCVEDLALYLKPLSGGKGVASLNQSALSRPMQRKLVTLVNCQLVEEEGRVRAMRAARSLGERTVTELILQHQNPQQLSANLWAAVRARGCQFLGPAMQEEALKLVLLALEDGSALSRKVLVLFVVQRLEPRFPQASKTSIGHVVQLLYRASCFKVTKRDEDSSLMQLKEEFRSYEALRREHDAQIVHIAMEAGLRISPEQWSSLLYGDLAHKSHMQSIIDKLQSPESFAKSVQELTIVLQRTGDPANLNRLRPHLELLANIDPNPDAVSPTWEQLENAMVAVKTVVHGLVDFIQNYSRKGHETPQPQPNSKYKTSMCRDLRQQGGCPRGTNCTFAHSQEELEK
binding [1]: no binding (tested: 1, 3, 5 and 10 mg/ml)

B2: RC3H1 ROQ domain (a.a. 178–328), proteolytic product of RC3H1 (a.a. 1–445) (domain or fragment, UniProt Q5TC82 178-328)
chain: QLSSNLWAAVRARGCQFLGPAMQEEALKLVLLALEDGSALSRKVLVLFVVQRLEPRFPQASKTSIGHVVQLLYRASCFKVTKRDEDSSLMQLKEEFRTYEALRREHDSQIVQIAMEAGLRIAPDQWSSLLYGDQSHKSHMQSIIDKLQTPA
binding [2]: no binding

B5: RNA-binding region of human RC3H2 (a.a. 87–404), N-terminal His6-tag removed (domain or fragment, UniProt Q9HBD1 87-404)
chain: SNLGENKHYEVAKKCVEDLALYLKPLSGGKGVASLNQSALSRPMQRKLVTLVNCQLVEEEGRVRAMRAARSLGERTVTELILQHQNPQQLSANLWAAVRARGCQFLGPAMQEEALKLVLLALEDGSALSRKVLVLFVVQRLEPRFPQASKTSIGHVVQLLYRASCFKVTKRDEDSSLMQLKEEFRSYEALRREHDAQIVHIAMEAGLRISPEQWSSLLYGDLAHKSHMQSIIDKLQSPESFAKSVQELTIVLQRTGDPANLNRLRPHLELLANIDPNPDAVSPTWEQLENAMVAVKTVVHGLVDFIQNYSRKGHETPQ
binding [5]: no binding

The remaining lines, values ahead:

binding [3]: no binding (tested: 0.75, 1 and 5 mg/ml)
B3: human RC3H1 (a.a. 1–445) (domain or fragment, UniProt Q5TC82 1-445)
chain: MPVQAPQWTDFLSCPICTQTFDETIRKPISLGCGHTVCKMCLNKLHRKACPFDQTTINTDIELLPVNSALLQLVGAQVPEQQPITLCSGVEDTKHYEEAKKCVEELALYLKPLSSARGVGLNSTTQSVLSRPMQRKLVTLVHCQLVEEEGRIRAMRAARSLGERTVTELILQHQNPQQLSSNLWAAVRARGCQFLGPAMQEEALKLVLLALEDGSALSRKVLVLFVVQRLEPRFPQASKTSIGHVVQLLYRASCFKVTKRDEDSSLMQLKEEFRTYEALRREHDSQIVQIAMEAGLRIAPDQWSSLLYGDQSHKSHMQSIIDKLQTPASFAQSVQELTIALQRTGDPANLNRLRPHLELLANIDPSPDAPPPTWEQLENGLVAVRTVVHGLVDYIQNHSKKGADQQQPPQHSKYKTYMCRDMKQRGGCPRGASCTFAHSQEELEK

binding [4]: no binding
B4: RNA-binding region of human RC3H2 (a.a. 87–404), as used in analytical SEC (domain or fragment, UniProt Q9HBD1 87-404)
chain: SNLGENKHYEVAKKCVEDLALYLKPLSGGKGVASLNQSALSRPMQRKLVTLVNCQLVEEEGRVRAMRAARSLGERTVTELILQHQNPQQLSANLWAAVRARGCQFLGPAMQEEALKLVLLALEDGSALSRKVLVLFVVQRLEPRFPQASKTSIGHVVQLLYRASCFKVTKRDEDSSLMQLKEEFRSYEALRREHDAQIVHIAMEAGLRISPEQWSSLLYGDLAHKSHMQSIIDKLQSPESFAKSVQELTIVLQRTGDPANLNRLRPHLELLANIDPNPDAVSPTWEQLENAMVAVKTVVHGLVDFIQNYSRKGHETPQ
